This test has as its target interferon regulation factor 3 (IRF3), porcine, endogenous in primary porcine alveolar macrophages (pig (endogenous in PAMs)) (UniProt Q764M6). Kind of test: native gel or EMSA. Background: In EMSA bound probe runs differently from free probe, usually more slowly.

Results are given in words; binding and its absence hold for the method and conditions named. Some results given as binding are weak or reduced against the parent protein; the word gives no strength.

B1: interferon regulation factor 3 (IRF3), porcine, endogenous in primary porcine alveolar macrophages (protein, UniProt Q764M6 1-419)
chain: MGTQKPRILPWLISQLNQGQLEGVAWLDEGHTRFRIPWKHGLRQDAQQEDFGIFQAWAEASGAYTPGKDKPDLPTWKRNFRSALNRKEALRLAEDHSKDPHDPHKIYEFVTSGVGDFPEPDTSLDLSGRYSTSDTHEDSLDKLLSGMDLASDAGPQSLTLALEQPPQLSLSPSVDAPASCPNLGVRENPLKQLLANDDEWEFQVTVFYRGCQVFQQTVCSPGGLRLVGSEAEDGTLAGQPVRLPDPAASLTDRGVADYVRRVLSCLGGGLALWRAGQWLWAQRLGHCHVYWAMGEELIPDSGHKPDGEVPKDREGGVFDLGPFIEDLIAFIEGSRRSPRYTLWFCMGQSWPQDEPWVKRLVMVKVVPMCLRALVDMARDGGASSLENTVDLHISNSHPLSLTSDQYKACLRDLVEDMDF
As to B1, the binding entry was “binds”.
